Values from PubChem BioAssay AID686938 (Drosophila RNAi Screening Center, 2013).
In all, the deposit lists about 23,000 reagents; shown is an unselected part of those that have a named target and a result. In the full data, 75 (0.33%) got an active call. 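Raw plate signals without normalisation; calls rest on plate z-scores that were not deposited; ratio present for only 364 wells.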 Unmarked entries are inactive. A plus sign joins genes that one reagent is predicted to hit. Not stated in the record: the dose of the treatment.

Purpose: 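Knock-downs reducing store-operated calcium influx in Drosophila cells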 (primary screen)
Cell system: Drosophila S2R+ cells
Reagents: long dsRNA against Drosophila genes, about 0.25 µg dsRNA per well, roughly 10,000 cells
Time to read-out: 5 days of knock-down before the calcium assay
Challenge: thapsigargin (SERCA pump blocker) to empty calcium stores; entry signal taken 4 min after adding it
Measurement: 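Duplicate raw fluo-4 intensities per well from a plate reader, at rest and four minutes after thapsigargin emptied calcium stores; entry-to-rest ratio filled for only some wells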
Scale: calcium entry signal: higher = stronger calcium signal after store depletion; resting calcium signal: higher = higher resting calcium signal
Hit rule: 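Hit if the duplicate-averaged plate z-score for entry over resting signal is under −3; wells with weak total dye signal (Fmax z < −2) or more than 5 off-targets removed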
Calls: active = strongly reduced calcium entry; inactive = no strong reduction

For CG5033 (GeneID 37036) [DRSC07410], the entry reads calcium entry signal, replicate 1 (fluorescence units) = 2.52e7; calcium entry signal, replicate 2 (fluorescence units) = 2.52e7; resting calcium signal, replicate 1 (fluorescence units) = 1.24e7; resting calcium signal, replicate 2 (fluorescence units) = 1.35e7.
For Polr1B (GeneID 33210) [DRSC00780], the values are calcium entry signal, replicate 1 (fluorescence units) = 2.41e7; resting calcium signal, replicate 1 (fluorescence units) = 1.25e7.
With knock-down of Strn-Mlck (GeneID 36753) [DRSC05032], the record shows calcium entry signal, replicate 1 (fluorescence units) = 3.28e7; calcium entry signal, replicate 2 (fluorescence units) = 2.64e7; resting calcium signal, replicate 1 (fluorescence units) = 1.49e7; resting calcium signal, replicate 2 (fluorescence units) = 1.29e7.
After knock-down of Strn-Mlck (GeneID 36753) [DRSC05598] the results were calcium entry signal, replicate 1 (fluorescence units) = 1.65e7; calcium entry signal, replicate 2 (fluorescence units) = 4.34e7; resting calcium signal, replicate 1 (fluorescence units) = 8.35e6; resting calcium signal, replicate 2 (fluorescence units) = 2.09e7.
After knock-down of Strn-Mlck (GeneID 36753) [DRSC06571], the record shows calcium entry signal, replicate 1 (fluorescence units) = 3.58e7; calcium entry signal, replicate 2 (fluorescence units) = 6.06e7; resting calcium signal, replicate 1 (fluorescence units) = 1.42e7; resting calcium signal, replicate 2 (fluorescence units) = 2.57e7.
Silencing of Strn-Mlck (GeneID 36753) [DRSC07471] came out at: calcium entry signal, replicate 1 (fluorescence units) = 2.79e7; calcium entry signal, replicate 2 (fluorescence units) = 3.12e7; resting calcium signal, replicate 1 (fluorescence units) = 1.18e7; resting calcium signal, replicate 2 (fluorescence units) = 1.54e7.
Against CG15322 (GeneID 33012) [DRSC20680] the deposit lists calcium entry signal, replicate 1 (fluorescence units) = 5.40e7; calcium entry signal, replicate 2 (fluorescence units) = 6.39e7; resting calcium signal, replicate 1 (fluorescence units) = 2.79e7; resting calcium signal, replicate 2 (fluorescence units) = 2.85e7.
Silencing of CG15322 (GeneID 33012) [DRSC23023] came out at: calcium entry signal, replicate 1 (fluorescence units) = 3.53e7; calcium entry signal, replicate 2 (fluorescence units) = 3.31e7; resting calcium signal, replicate 1 (fluorescence units) = 1.69e7; resting calcium signal, replicate 2 (fluorescence units) = 1.52e7.
Knock-down of cN-IIIB (GeneID 37875) [DRSC04359] resulted in: calcium entry signal, replicate 1 (fluorescence units) = 4.16e7; resting calcium signal, replicate 1 (fluorescence units) = 2.12e7.
Against Calr (GeneID 41166) [DRSC16614] the deposit lists calcium entry signal, replicate 1 (fluorescence units) = 3.35e7; calcium entry signal, replicate 2 (fluorescence units) = 3.07e7; resting calcium signal, replicate 1 (fluorescence units) = 1.83e7; resting calcium signal, replicate 2 (fluorescence units) = 1.74e7.
Knock-down of Rpn3 (GeneID 35176) [DRSC03318] resulted in: calcium entry signal, replicate 1 (fluorescence units) = 2.08e7; calcium entry signal, replicate 2 (fluorescence units) = 2.35e7; resting calcium signal, replicate 1 (fluorescence units) = 1.51e7; resting calcium signal, replicate 2 (fluorescence units) = 1.52e7.
After knock-down of mxt (GeneID 33686) [DRSC00551] the results were calcium entry signal, replicate 1 (fluorescence units) = 3.42e7; resting calcium signal, replicate 1 (fluorescence units) = 1.93e7.
Knock-down of CG33966 (GeneID 3885642) [DRSC08256] gave: calcium entry signal, replicate 1 (fluorescence units) = 3.01e7; calcium entry signal, replicate 2 (fluorescence units) = 3.40e7; resting calcium signal, replicate 1 (fluorescence units) = 1.51e7; resting calcium signal, replicate 2 (fluorescence units) = 1.58e7.
CG42450 (GeneID 32874) [DRSC20022] scored calcium entry signal, replicate 1 (fluorescence units) = 4.85e7; calcium entry signal, replicate 2 (fluorescence units) = 4.25e7; resting calcium signal, replicate 1 (fluorescence units) = 2.23e7; resting calcium signal, replicate 2 (fluorescence units) = 1.71e7.
Silencing of CG42450 (GeneID 32874) [DRSC22751] gave: calcium entry signal, replicate 1 (fluorescence units) = 3.76e7; calcium entry signal, replicate 2 (fluorescence units) = 3.56e7; resting calcium signal, replicate 1 (fluorescence units) = 2.21e7; resting calcium signal, replicate 2 (fluorescence units) = 1.56e7.
After knock-down of vis + achi [DRSC07277] the results were calcium entry signal, replicate 1 (fluorescence units) = 3.45e7; calcium entry signal, replicate 2 (fluorescence units) = 4.21e7; resting calcium signal, replicate 1 (fluorescence units) = 1.56e7; resting calcium signal, replicate 2 (fluorescence units) = 2.04e7.
Knock-down of wisp (GeneID 32152) [DRSC19703] resulted in: calcium entry signal, replicate 1 (fluorescence units) = 2.58e7; calcium entry signal, replicate 2 (fluorescence units) = 2.93e7; resting calcium signal, replicate 1 (fluorescence units) = 1.35e7; resting calcium signal, replicate 2 (fluorescence units) = 1.42e7.
wisp (GeneID 32152) [DRSC23092] showed calcium entry signal, replicate 1 (fluorescence units) = 5.29e7; calcium entry signal, replicate 2 (fluorescence units) = 3.38e7; resting calcium signal, replicate 1 (fluorescence units) = 2.52e7; resting calcium signal, replicate 2 (fluorescence units) = 1.54e7.
CG6094 (GeneID 34446) [DRSC02927] gave calcium entry signal, replicate 1 (fluorescence units) = 3.21e7; calcium entry signal, replicate 2 (fluorescence units) = 4.68e7; resting calcium signal, replicate 1 (fluorescence units) = 1.54e7; resting calcium signal, replicate 2 (fluorescence units) = 2.20e7.
For CG6094 (GeneID 34446) [DRSC22705], the entry reads calcium entry signal, replicate 1 (fluorescence units) = 5.20e7; calcium entry signal, replicate 2 (fluorescence units) = 4.91e7; resting calcium signal, replicate 1 (fluorescence units) = 2.45e7; resting calcium signal, replicate 2 (fluorescence units) = 1.61e7.
Depletion of bam (GeneID 43038) [DRSC16907] resulted in: calcium entry signal, replicate 1 (fluorescence units) = 3.74e7; calcium entry signal, replicate 2 (fluorescence units) = 6.09e7; resting calcium signal, replicate 1 (fluorescence units) = 1.94e7; resting calcium signal, replicate 2 (fluorescence units) = 2.48e7.
